Measured values published in PMC13064845.
Results are given in words; binding and its absence hold for the method and conditions named. For part of these data: In cells and extracts the contact can be indirect. Some results given as binding are weak or reduced against the parent protein; the word gives no strength. For part of these data: Tags and fused reporters may be left off the sequences shown.

Sequences of proteins named here, by UniProt entry; tags and fusion partners are left off. Residues count along the entry.
UniProt P35441, residues 19-1170: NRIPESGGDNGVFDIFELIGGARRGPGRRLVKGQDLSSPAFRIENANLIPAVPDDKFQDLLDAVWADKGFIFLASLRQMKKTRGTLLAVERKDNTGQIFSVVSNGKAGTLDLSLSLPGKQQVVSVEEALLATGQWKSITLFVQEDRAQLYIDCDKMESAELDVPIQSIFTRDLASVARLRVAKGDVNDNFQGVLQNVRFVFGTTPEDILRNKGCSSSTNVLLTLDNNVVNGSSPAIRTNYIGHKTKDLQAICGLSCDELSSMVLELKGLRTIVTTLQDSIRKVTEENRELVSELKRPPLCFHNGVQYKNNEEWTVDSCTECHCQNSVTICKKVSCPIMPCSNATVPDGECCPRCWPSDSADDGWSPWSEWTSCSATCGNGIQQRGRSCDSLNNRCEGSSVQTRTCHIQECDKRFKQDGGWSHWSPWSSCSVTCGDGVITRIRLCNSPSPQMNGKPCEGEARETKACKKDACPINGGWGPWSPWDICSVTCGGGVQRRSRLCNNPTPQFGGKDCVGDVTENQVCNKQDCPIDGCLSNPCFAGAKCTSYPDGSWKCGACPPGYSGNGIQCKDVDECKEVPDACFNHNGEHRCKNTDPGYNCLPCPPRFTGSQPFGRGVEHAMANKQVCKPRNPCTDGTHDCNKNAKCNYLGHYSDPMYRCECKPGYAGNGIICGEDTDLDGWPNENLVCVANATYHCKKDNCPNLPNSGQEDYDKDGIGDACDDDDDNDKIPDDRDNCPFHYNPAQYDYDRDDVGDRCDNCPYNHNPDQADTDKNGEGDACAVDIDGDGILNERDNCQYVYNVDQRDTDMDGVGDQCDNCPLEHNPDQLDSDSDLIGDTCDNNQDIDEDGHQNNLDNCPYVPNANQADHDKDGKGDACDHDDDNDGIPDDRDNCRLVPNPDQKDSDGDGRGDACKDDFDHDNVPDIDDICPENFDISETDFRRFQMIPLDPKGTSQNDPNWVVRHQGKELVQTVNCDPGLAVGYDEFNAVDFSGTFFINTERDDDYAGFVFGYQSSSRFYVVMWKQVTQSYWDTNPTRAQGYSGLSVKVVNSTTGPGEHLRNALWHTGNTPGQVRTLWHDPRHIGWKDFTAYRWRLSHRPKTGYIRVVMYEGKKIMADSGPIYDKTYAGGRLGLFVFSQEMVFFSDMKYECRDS

Target: HA-tagged TSP1 (UniProt P35441)
Assay: co-IP; HEK293T cells co-transfected with HA-tagged TSP1 and FBLN7-Flag (full length, deletion mutants or point mutants); precipitated in both directions for the full-length protein

binding	Binder
binds	FBLN7-Flag ΔEGF-like (lacking the EGF-like domain, residues 136–172) (protein, UniProt Q501P1) QSCLNKQQLLTTIRQLQQLLKGQETRFTEGIRNMKSRLAALQNTVNKMTPDAPPVSCPALEAPPDGKKFGSKYLVDHEVYFTCNPGFQLVGPSSVVCLANGSWTGEQPRCRHQTQAAAPDGGEAGDPAFSRAPRCAQVEREQHCSCEAGFHLSSTTGGHSVCQDVNECEIYGQKGRPRLCMHACVNTPGSYRCTCPSGYRILADGKSCEDVDECAGPQHMCPRGTTCINTGGGFQCVNPECPEGSGNISYVKTSPFQCERNPCPMDSRPCRHLPKTISFHYLSLPSKLKTPITLFRMATASIPGHPGPNSLRFGIVGGNSRGHFVMQRSDRQTGELILTQTLEGPQTLEVDVDMSEYLERSFQANHVSKVTIFVSRYDF
binds	FBLN7-Flag ΔN (lacking the coiled coil in N-terminus, residues 22–79) (protein, UniProt Q501P1) SCPALEAPPDGKKFGSKYLVDHEVYFTCNPGFQLVGPSSVVCLANGSWTGEQPRCRDISECSSQPCHNGGTCVEGINHYRCICPPGKTGNRCQHQTQAAAPDGGEAGDPAFSRAPRCAQVEREQHCSCEAGFHLSSTTGGHSVCQDVNECEIYGQKGRPRLCMHACVNTPGSYRCTCPSGYRILADGKSCEDVDECAGPQHMCPRGTTCINTGGGFQCVNPECPEGSGNISYVKTSPFQCERNPCPMDSRPCRHLPKTISFHYLSLPSKLKTPITLFRMATASIPGHPGPNSLRFGIVGGNSRGHFVMQRSDRQTGELILTQTLEGPQTLEVDVDMSEYLERSFQANHVSKVTIFVSRYDF
binds	full-length FBLN7-Flag (protein, UniProt Q501P1 25-440) QSCLNKQQLLTTIRQLQQLLKGQETRFTEGIRNMKSRLAALQNTVNKMTPDAPPVSCPALEAPPDGKKFGSKYLVDHEVYFTCNPGFQLVGPSSVVCLANGSWTGEQPRCRDISECSSQPCHNGGTCVEGINHYRCICPPGKTGNRCQHQTQAAAPDGGEAGDPAFSRAPRCAQVEREQHCSCEAGFHLSSTTGGHSVCQDVNECEIYGQKGRPRLCMHACVNTPGSYRCTCPSGYRILADGKSCEDVDECAGPQHMCPRGTTCINTGGGFQCVNPECPEGSGNISYVKTSPFQCERNPCPMDSRPCRHLPKTISFHYLSLPSKLKTPITLFRMATASIPGHPGPNSLRFGIVGGNSRGHFVMQRSDRQTGELILTQTLEGPQTLEVDVDMSEYLERSFQANHVSKVTIFVSRYDF
binds	FBLN7-Flag ΔC (lacking the C-terminus, residues 374–440) (protein, UniProt Q501P1) QSCLNKQQLLTTIRQLQQLLKGQETRFTEGIRNMKSRLAALQNTVNKMTPDAPPVSCPALEAPPDGKKFGSKYLVDHEVYFTCNPGFQLVGPSSVVCLANGSWTGEQPRCRDISECSSQPCHNGGTCVEGINHYRCICPPGKTGNRCQHQTQAAAPDGGEAGDPAFSRAPRCAQVEREQHCSCEAGFHLSSTTGGHSVCQDVNECEIYGQKGRPRLCMHACVNTPGSYRCTCPSGYRILADGKSCEDVDECAGPQHMCPRGTTCINTGGGFQCVNPECPEGSGNISYVKTSPFQCERNPCPMDSRPCRHLPKTISFHYLSLPSKLKTPITLFRMATASIPGHPGPNSLR
binds	FBLN7-Flag ΔSushi (lacking the sushi domain, residues 73–142) (protein, UniProt Q501P1) QSCLNKQQLLTTIRQLQQLLKGQETRFTEGIRNMKSRLAALQNTVNKMQPCHNGGTCVEGINHYRCICPPGKTGNRCQHQTQAAAPDGGEAGDPAFSRAPRCAQVEREQHCSCEAGFHLSSTTGGHSVCQDVNECEIYGQKGRPRLCMHACVNTPGSYRCTCPSGYRILADGKSCEDVDECAGPQHMCPRGTTCINTGGGFQCVNPECPEGSGNISYVKTSPFQCERNPCPMDSRPCRHLPKTISFHYLSLPSKLKTPITLFRMATASIPGHPGPNSLRFGIVGGNSRGHFVMQRSDRQTGELILTQTLEGPQTLEVDVDMSEYLERSFQANHVSKVTIFVSRYDF

Target: thrombospondin-1 (TSP1), immobilised in the Biacore analysis (UniProt P35441)
Assay: SPR; Biacore; TSP1 immobilised, sequential injections of FBLN7 at rising concentrations; both purified

binding	Binder
binds	fibulin-7 (FBLN7), analyte of the Biacore analysis (protein, UniProt Q501P1 25-440) QSCLNKQQLLTTIRQLQQLLKGQETRFTEGIRNMKSRLAALQNTVNKMTPDAPPVSCPALEAPPDGKKFGSKYLVDHEVYFTCNPGFQLVGPSSVVCLANGSWTGEQPRCRDISECSSQPCHNGGTCVEGINHYRCICPPGKTGNRCQHQTQAAAPDGGEAGDPAFSRAPRCAQVEREQHCSCEAGFHLSSTTGGHSVCQDVNECEIYGQKGRPRLCMHACVNTPGSYRCTCPSGYRILADGKSCEDVDECAGPQHMCPRGTTCINTGGGFQCVNPECPEGSGNISYVKTSPFQCERNPCPMDSRPCRHLPKTISFHYLSLPSKLKTPITLFRMATASIPGHPGPNSLRFGIVGGNSRGHFVMQRSDRQTGELILTQTLEGPQTLEVDVDMSEYLERSFQANHVSKVTIFVSRYDF
